PMC5148607
Results are given in words; binding and its absence hold for the method and conditions named. Binding seen in cells or lysates may run through a third protein. Some entries that bind do so weakly or less than the wild type.

Sequences of proteins named here, by UniProt entry; tags and fusion partners are left off. A change or cut given only in a name is not applied to a line headed by its entry.
UniProt P24610: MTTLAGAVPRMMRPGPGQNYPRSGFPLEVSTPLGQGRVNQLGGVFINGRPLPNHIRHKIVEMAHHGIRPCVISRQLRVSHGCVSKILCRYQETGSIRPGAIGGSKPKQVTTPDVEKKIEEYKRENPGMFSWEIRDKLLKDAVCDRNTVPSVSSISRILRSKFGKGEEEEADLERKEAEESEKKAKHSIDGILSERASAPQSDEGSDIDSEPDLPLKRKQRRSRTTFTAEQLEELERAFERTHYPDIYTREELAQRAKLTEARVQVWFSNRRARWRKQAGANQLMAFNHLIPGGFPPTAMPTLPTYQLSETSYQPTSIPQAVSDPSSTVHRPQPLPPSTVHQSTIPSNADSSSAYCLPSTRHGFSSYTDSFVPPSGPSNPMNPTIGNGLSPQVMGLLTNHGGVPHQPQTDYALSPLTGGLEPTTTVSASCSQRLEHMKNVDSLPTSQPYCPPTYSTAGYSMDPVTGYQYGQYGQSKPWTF
UniProt P28028: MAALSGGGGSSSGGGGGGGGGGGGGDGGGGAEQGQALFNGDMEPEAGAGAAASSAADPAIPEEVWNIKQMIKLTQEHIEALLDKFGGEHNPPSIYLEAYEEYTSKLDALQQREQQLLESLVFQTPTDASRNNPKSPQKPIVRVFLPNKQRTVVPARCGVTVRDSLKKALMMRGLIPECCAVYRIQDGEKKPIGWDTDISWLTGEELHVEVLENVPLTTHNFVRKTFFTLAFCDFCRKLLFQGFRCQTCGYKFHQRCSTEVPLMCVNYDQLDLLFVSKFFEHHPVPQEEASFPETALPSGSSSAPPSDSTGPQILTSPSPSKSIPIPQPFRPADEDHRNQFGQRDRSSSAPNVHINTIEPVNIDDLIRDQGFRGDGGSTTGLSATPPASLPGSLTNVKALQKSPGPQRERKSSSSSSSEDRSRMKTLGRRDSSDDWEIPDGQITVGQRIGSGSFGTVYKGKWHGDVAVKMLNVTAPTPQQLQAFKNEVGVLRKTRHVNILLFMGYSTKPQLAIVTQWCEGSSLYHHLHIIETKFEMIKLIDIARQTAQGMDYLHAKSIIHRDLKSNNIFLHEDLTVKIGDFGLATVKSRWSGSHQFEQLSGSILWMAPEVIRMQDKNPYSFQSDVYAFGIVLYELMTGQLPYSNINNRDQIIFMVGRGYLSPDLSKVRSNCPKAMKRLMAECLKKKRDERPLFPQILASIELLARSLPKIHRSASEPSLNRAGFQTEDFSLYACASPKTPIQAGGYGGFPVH
UniProt P15056: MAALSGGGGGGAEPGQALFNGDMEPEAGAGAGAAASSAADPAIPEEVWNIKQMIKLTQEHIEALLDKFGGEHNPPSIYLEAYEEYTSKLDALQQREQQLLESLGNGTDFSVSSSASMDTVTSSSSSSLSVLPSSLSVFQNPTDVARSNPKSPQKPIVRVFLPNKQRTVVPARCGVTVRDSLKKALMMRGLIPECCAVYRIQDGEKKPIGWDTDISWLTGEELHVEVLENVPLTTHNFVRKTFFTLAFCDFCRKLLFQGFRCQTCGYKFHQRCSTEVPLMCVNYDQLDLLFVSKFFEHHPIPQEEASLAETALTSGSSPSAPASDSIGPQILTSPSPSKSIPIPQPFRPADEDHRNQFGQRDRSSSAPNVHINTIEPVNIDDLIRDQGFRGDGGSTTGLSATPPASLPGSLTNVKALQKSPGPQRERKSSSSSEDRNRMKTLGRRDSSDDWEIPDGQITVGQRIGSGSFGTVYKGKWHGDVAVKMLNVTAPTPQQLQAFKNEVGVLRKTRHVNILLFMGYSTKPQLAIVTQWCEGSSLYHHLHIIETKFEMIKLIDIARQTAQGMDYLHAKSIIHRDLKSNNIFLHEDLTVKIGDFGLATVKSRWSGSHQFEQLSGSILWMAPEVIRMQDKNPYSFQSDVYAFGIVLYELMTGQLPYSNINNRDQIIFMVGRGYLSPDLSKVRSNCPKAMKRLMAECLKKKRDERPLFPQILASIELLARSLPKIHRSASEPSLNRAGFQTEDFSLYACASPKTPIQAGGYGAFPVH

Assays:
[1] = molecular target: PAX3 (endogenous, mouse) (mouse (endogenous in E10.5 limb buds and C2C12)) (UniProt P24610); test: co-IP; E10.5 (and E12.5) wild type mouse limb buds; BRAF antibodies for IP and PAX3 antibodies for Western blot, or vice versa; endogenous proteins
GST-PAX3 = GST-PAX3 (UniProt P24610); test: pull-down; lysates of C2C12 cells transfected with wild type Braf or CA Braf (V600E) incubated overnight with PAX3-GST fusion protein coupled to glutathione-Sepharose beads; Western blot; only the target purified
[2] = molecular target: PAX3 (endogenous, mouse) (mouse (endogenous in E10.5 limb buds and C2C12)) (UniProt P24610); test: cross-linking; NHS-diazirine cross-linker (SD) in C2C12 cells transfected with CA Braf (V600E), then immunoprecipitation with BRAF or PAX3 antibodies and Western blot; cross-linker cleaved with DTT as control
[3] = molecular target: PAX3 (endogenous, mouse) (mouse (endogenous in E10.5 limb buds and C2C12)) (UniProt P24610); test: co-IP; endogenous PAX3 immunoprecipitated from C2C12 cells transfected with WT Braf, CA Braf (V600E) or vector; Western blot
[4] = molecular target: PAX3 (endogenous, mouse) (mouse (endogenous in E10.5 limb buds and C2C12)) (UniProt P24610); test: co-IP; immunoprecipitation from the nuclear fraction only of migrating C2C12 cells transfected with WT Braf, CA Braf (V600E) or HA-Pax3; Western blot
[5] = molecular target: BRAF (endogenous, mouse) (mouse (endogenous in E10.5 limb buds and C2C12)) (UniProt P28028); test: co-IP; E10.5 (and E12.5) wild type mouse limb buds; BRAF antibodies for IP and PAX3 antibodies for Western blot, or vice versa; endogenous proteins

binding [1]	binding (GST-PAX3)	binding [2]	binding [3]	binding [4]	binding [5]	Substance
binds						BRAF (endogenous, mouse) (from UniProt P28028 1-751) (enzyme)
	binds	binds	binds	binds		CA BRAF (V600E) (transfected, pEFm-V600E) (from UniProt P15056 1-766) (enzyme)
					binds	PAX3 (endogenous, mouse) (from UniProt P24610 1-479)
	binds		binds	binds		WT BRAF (transfected, pEFm-BRAF) (from UniProt P15056 1-766) (enzyme)
